Results as given in PMC6343519.
Results are given in words; binding and its absence hold for the method and conditions named. In cells and extracts the contact can be indirect. Some results given as binding are weak or reduced against the parent protein; the word gives no strength.

The chains behind the UniProt entries cited, without tags or fusion partners. Residues count along the entry.
UniProt P05556: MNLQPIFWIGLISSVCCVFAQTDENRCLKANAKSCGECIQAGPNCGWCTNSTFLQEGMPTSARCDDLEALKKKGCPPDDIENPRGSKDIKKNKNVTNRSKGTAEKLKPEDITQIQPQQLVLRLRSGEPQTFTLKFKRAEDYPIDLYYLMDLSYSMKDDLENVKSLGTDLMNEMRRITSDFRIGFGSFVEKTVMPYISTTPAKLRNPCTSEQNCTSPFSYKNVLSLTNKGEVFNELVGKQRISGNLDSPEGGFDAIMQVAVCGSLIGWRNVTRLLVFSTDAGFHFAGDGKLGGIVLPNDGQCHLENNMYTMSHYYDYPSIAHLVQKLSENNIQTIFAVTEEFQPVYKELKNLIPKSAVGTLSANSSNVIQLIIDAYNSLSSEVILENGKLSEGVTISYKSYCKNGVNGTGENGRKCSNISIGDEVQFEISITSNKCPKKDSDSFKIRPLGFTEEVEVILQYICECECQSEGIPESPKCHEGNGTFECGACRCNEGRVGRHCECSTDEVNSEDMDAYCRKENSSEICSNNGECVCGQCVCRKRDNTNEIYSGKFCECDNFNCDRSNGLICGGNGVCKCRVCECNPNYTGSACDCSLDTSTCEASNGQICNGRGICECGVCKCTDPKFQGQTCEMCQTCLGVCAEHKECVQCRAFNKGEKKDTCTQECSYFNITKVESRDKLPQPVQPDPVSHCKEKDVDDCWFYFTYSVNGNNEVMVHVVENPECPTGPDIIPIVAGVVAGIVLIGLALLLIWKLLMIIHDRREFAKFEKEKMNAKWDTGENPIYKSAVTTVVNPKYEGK
UniProt P43261, residues 40-934: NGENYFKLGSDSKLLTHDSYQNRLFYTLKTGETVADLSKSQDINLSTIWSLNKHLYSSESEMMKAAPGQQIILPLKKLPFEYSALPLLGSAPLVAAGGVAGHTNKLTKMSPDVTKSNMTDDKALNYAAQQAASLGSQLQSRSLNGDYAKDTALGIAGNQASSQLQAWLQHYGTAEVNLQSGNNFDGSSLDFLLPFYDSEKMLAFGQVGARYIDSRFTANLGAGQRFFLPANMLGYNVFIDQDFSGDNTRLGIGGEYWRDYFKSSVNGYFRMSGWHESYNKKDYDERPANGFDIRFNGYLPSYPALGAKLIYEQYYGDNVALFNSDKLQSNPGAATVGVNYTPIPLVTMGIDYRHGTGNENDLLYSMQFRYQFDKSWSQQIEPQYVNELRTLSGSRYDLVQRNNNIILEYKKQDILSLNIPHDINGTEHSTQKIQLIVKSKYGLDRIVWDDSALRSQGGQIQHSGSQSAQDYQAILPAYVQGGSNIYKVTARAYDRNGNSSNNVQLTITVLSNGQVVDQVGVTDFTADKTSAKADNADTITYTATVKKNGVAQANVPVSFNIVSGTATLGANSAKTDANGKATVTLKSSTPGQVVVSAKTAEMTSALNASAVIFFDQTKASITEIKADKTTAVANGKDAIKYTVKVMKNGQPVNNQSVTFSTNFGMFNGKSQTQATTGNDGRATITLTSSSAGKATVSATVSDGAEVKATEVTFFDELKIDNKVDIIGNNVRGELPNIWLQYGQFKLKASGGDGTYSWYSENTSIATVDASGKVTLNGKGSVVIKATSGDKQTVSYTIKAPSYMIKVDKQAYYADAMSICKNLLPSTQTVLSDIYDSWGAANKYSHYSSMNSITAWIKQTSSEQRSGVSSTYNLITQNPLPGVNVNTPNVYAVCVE

Molecular target: integrin β1 (human (endogenous in Caco-2)) (UniProt P05556)
Assay: co-IP

In the case of intimin (from UniProt P43261 40-934), the binding is reported as “binds”.
